Results published in article PMC11170899.
These are yes or no findings as the source states them, for the method shown. In cells and extracts the contact can be indirect. Some entries that bind do so weakly or less than the wild type.

Chains of the proteins cited; added tags and fusions are not shown.
UniProt Q13309: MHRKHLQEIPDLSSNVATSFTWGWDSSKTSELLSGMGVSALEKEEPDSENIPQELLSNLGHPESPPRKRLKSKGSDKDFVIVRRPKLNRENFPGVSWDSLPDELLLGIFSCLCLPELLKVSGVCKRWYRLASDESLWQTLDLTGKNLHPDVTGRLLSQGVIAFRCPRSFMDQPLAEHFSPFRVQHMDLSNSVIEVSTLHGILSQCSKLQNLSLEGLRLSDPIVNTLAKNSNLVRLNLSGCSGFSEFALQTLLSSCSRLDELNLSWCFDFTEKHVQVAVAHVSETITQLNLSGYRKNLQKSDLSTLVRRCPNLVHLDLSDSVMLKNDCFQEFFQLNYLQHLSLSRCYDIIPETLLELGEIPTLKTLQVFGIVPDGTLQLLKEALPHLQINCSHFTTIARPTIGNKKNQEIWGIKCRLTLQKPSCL

Target: E3 ubiquitin ligase SKP2 (human (in MDA-MB-231 and BT549 cells)) (UniProt Q13309)
Experiment: co-IP; lysate of breast cancer cells (MDA-MB-231 and BT549) incubated with antibody at 4 °C overnight, then beads 2 h at 4 °C; washed 2 times with IP lysate; western blot

B1: Testicular expression 19 (TEX19) (protein, UniProt Q8NA77 1-164)
chain: MCPPVSMRYEEEGMSYLYASWMYQLQHGDQLSICFTCFKAAFLDFKDLLESEDWEEDNWDPELMEHTEAESEQEGSSGMELSWGQSPGQPVQGGSEAWGPGTLAAAPEGLEDAGLDPHFVPTELWPQEAVPLGLGLEDADWTQGLPWRFEELLTCSHWPSFFPS
binding: binds
